Test results published in article PMC10689479.
Results are given in words; binding and its absence hold for the method and conditions named. Binding seen in cells or lysates may run through a third protein. These calls come from enrichment with a bait or labelling near it, and not all partners need be listed. For some assays here: No binding means not detected with the bait. Values belong to the molecule of their own block, whether it stands above or below them.

Sequences of proteins named here, by UniProt entry; tags and fusion partners are left off. A change or cut given only in a name is not applied to a line headed by its entry.
UniProt Q9BTC0: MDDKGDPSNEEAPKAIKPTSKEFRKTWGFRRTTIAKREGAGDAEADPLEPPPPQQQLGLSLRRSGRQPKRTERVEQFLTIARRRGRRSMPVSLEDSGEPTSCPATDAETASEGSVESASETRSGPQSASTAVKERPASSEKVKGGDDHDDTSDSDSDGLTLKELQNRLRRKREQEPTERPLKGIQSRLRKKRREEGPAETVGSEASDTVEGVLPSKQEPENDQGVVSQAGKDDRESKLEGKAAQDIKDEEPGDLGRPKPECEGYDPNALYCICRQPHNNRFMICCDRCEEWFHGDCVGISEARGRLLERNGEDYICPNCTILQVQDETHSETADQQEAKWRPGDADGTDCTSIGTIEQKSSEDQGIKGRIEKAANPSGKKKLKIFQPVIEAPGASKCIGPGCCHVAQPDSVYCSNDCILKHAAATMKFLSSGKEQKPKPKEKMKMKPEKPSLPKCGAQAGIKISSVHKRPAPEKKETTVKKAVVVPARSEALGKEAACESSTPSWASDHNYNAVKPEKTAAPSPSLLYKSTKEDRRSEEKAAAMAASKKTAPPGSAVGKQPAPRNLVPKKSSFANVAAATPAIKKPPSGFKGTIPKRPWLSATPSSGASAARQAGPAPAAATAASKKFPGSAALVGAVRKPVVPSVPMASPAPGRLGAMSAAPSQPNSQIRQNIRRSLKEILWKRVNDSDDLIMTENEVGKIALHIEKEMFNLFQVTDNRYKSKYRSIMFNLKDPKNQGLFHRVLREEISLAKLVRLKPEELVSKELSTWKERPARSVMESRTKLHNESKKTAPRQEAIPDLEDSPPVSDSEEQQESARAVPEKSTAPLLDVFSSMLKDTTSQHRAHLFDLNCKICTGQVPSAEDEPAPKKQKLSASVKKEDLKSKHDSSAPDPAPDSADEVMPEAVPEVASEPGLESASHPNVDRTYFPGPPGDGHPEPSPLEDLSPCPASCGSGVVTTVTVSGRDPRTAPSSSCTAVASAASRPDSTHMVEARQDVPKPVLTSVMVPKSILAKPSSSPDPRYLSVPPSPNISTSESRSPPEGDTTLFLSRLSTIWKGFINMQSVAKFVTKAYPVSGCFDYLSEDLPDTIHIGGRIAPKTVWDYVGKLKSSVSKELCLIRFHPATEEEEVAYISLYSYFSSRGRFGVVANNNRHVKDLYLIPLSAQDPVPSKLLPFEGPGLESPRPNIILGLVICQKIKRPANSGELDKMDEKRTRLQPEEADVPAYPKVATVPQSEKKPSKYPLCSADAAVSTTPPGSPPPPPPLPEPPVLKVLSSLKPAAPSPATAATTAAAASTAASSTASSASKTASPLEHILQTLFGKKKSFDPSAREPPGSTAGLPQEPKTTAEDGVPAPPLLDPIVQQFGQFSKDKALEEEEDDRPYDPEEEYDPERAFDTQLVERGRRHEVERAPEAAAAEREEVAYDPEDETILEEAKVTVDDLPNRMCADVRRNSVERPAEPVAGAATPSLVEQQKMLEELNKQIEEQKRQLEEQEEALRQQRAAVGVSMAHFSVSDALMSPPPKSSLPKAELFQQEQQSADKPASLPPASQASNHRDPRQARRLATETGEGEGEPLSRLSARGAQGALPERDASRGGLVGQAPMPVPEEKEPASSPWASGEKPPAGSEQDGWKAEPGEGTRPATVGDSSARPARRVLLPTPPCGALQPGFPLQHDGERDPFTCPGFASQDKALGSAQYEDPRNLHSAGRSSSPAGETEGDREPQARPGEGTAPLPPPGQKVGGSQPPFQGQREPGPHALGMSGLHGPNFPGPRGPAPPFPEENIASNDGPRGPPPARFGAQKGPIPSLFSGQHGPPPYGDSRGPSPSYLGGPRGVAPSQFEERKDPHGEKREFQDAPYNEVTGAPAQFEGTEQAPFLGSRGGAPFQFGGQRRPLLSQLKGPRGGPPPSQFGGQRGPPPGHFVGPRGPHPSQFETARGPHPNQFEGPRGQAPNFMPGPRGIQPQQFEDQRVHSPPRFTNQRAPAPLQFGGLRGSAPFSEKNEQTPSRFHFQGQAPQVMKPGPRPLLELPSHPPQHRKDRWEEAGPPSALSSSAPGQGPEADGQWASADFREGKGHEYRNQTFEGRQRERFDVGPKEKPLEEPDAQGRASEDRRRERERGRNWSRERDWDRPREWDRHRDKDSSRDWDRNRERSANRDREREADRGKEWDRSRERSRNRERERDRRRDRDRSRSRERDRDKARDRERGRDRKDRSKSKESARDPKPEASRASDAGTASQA
UniProt P21127: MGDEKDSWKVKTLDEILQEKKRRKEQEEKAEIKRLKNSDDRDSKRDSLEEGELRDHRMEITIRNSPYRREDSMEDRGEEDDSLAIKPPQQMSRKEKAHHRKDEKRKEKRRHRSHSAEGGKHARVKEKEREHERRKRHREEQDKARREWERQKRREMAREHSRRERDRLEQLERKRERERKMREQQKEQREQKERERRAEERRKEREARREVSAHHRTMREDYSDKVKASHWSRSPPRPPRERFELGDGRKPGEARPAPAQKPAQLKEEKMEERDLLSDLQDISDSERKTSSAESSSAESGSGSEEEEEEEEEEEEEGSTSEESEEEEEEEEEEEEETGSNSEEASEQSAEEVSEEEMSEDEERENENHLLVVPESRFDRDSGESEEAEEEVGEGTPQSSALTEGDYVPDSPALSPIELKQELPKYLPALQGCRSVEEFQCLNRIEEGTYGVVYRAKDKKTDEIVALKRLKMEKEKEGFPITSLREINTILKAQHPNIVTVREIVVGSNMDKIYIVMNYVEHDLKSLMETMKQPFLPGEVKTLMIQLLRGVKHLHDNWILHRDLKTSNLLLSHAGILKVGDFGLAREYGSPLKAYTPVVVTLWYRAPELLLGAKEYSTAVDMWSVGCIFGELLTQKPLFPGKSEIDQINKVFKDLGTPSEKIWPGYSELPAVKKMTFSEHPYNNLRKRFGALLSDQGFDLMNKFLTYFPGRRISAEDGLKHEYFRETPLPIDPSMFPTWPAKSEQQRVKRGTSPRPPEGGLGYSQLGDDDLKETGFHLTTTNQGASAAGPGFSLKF
UniProt Q9UGN5: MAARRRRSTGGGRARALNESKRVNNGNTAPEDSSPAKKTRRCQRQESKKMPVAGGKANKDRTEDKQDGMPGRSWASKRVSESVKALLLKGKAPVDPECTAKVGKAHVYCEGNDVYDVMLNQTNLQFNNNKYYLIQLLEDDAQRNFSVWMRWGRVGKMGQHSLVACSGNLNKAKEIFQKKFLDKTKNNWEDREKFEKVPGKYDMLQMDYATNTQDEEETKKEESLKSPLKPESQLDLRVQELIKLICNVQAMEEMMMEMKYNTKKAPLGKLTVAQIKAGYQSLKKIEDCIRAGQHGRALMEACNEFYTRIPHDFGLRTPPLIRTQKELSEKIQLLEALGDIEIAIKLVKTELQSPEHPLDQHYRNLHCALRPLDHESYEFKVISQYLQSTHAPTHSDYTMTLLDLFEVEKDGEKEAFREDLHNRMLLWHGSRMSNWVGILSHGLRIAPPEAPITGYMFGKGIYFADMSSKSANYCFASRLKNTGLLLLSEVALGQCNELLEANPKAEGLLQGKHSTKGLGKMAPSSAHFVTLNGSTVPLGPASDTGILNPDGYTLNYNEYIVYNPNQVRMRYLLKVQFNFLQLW
UniProt P67809: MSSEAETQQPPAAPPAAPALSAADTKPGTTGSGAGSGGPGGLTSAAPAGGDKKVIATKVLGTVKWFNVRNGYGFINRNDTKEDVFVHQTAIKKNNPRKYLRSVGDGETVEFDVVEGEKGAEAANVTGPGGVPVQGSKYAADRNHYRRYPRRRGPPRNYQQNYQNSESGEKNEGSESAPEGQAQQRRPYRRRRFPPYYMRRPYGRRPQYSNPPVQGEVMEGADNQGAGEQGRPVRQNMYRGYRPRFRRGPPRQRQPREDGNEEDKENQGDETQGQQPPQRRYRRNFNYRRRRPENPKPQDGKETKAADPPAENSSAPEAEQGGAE
UniProt Q5SSJ5: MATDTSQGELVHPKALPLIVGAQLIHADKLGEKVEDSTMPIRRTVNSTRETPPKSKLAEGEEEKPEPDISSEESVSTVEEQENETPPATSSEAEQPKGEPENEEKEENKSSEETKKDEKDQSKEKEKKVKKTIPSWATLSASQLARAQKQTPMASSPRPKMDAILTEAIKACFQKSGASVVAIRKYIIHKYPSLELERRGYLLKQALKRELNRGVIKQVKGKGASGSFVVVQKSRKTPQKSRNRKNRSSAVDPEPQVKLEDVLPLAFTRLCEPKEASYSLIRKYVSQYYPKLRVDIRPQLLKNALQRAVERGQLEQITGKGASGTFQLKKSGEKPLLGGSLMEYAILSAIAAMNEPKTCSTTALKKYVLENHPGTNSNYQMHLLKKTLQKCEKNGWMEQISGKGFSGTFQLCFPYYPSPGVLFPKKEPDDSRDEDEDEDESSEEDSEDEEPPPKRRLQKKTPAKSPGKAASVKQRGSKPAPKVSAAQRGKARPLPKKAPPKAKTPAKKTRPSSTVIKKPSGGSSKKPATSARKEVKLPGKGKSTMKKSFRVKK
UniProt P09874: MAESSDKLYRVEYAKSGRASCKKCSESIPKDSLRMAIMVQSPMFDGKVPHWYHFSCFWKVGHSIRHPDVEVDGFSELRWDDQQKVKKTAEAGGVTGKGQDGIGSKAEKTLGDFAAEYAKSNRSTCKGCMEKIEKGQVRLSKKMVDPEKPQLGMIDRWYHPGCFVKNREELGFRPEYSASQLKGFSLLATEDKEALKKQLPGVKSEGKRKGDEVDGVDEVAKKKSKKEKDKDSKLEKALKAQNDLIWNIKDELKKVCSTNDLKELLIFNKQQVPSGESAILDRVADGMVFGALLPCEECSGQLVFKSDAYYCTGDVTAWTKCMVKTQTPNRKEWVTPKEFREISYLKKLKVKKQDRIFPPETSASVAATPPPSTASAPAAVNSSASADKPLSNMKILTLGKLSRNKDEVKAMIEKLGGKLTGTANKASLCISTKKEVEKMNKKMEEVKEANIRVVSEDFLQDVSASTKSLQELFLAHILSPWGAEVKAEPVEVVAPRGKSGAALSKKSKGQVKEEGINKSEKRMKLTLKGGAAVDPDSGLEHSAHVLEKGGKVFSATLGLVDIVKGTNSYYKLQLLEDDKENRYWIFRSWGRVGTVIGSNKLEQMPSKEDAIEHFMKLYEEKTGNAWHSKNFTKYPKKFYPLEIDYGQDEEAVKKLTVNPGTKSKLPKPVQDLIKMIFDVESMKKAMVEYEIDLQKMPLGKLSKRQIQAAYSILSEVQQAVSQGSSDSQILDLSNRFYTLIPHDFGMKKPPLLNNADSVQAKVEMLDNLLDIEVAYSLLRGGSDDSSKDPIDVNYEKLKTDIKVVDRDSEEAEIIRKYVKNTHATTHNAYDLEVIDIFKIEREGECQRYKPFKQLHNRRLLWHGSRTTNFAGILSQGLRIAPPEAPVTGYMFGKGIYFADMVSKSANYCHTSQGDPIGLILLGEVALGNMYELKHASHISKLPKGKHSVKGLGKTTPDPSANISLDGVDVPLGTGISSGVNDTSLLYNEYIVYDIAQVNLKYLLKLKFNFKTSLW
UniProt P18887: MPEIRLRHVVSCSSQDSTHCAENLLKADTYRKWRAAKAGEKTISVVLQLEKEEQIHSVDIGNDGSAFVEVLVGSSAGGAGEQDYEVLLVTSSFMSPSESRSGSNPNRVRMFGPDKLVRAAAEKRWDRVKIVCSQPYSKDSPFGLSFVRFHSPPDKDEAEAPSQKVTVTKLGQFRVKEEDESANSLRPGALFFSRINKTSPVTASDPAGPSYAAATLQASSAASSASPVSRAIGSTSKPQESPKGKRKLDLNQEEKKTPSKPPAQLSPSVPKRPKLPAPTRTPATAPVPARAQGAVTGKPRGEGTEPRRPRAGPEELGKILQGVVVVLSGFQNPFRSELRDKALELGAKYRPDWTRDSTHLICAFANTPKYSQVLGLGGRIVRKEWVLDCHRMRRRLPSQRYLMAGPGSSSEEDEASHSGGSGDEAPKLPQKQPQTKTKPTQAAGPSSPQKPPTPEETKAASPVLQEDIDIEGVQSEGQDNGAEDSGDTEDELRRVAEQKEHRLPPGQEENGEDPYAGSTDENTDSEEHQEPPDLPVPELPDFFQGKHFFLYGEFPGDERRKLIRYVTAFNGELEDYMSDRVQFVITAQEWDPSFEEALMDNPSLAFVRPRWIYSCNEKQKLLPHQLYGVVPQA
UniProt O75367: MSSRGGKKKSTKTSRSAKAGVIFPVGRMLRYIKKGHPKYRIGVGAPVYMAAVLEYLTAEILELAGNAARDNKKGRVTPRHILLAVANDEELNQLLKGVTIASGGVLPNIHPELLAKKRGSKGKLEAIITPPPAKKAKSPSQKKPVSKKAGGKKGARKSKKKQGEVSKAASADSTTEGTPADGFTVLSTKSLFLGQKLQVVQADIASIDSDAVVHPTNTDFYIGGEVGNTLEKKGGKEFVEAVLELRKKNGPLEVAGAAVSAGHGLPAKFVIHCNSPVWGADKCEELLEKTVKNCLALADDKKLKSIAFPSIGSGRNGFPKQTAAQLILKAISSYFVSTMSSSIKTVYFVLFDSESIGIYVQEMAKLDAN

Legend:
Test in all cases: affinity purification with mass spectrometry; anti-FLAG M2 magnetic beads on lysates of HEK293T transfected with FLAG-DIDO constructs (50 mM Tris-Cl pH 8, 150 mM NaCl, 0.1% Triton, benzonase), 2 h at 4 °C; against empty vector; three replicates
FLAG-DIDO3 = FLAG-DIDO3 (UniProt Q9BTC0)
FLAG-DIDO3 ∆SPOC = FLAG-DIDO3 ∆SPOC (UniProt Q9BTC0)
FLAG-DIDO3 ∆N = biological target: FLAG-DIDO3 ∆N

binding (FLAG-DIDO3): binds
Molecule: CDK11B (from UniProt P21127 1-795) (enzyme)

binding (FLAG-DIDO3): binds
Molecule: PARP2 (from UniProt Q9UGN5 1-583) (enzyme)

binding (FLAG-DIDO3): binds
Molecule: YB1 (from UniProt P67809 1-324)

binding (FLAG-DIDO3 ∆N): no binding
binding (FLAG-DIDO3): binds
B1: BANF1 (protein, UniProt O75531 1-89)
chain: MTTSQKHRDFVAEPMGEKPVGSLAGIGEVLGKKLEERGFDKAYVVLGQFLVLKKDEDLFREWLKDTCGANAKQSRDCFGCLREWCDAFL

binding (FLAG-DIDO3 ∆N): no binding
binding (FLAG-DIDO3): binds
B3: DEK (protein, UniProt P35659 1-375)
chain: MSASAPAAEGEGTPTQPASEKEPEMPGPREESEEEEDEDDEEEEEEEKEKSLIVEGKREKKKVERLTMQVSSLQREPFTIAQGKGQKLCEIERIHFFLSKKKTDELRNLHKLLYNRPGTVSSLKKNVGQFSGFPFEKGSVQYKKKEEMLKKFRNAMLKSICEVLDLERSGVNSELVKRILNFLMHPKPSGKPLPKSKKTCSKGSKKERNSSGMARKAKRTKCPEILSDESSSDEDEKKNKEESSDDEDKESEEEPPKKTAKREKPKQKATSKSKKSVKSANVKKADSSTTKKNQNSSKKESESEDSSDDEPLIKKLKKPPTDEELKETIKKLLASANLEEVTMKQICKKVYENYPTYDLTERKDFIKTTVKELIS

The next lines start with the molecule.

Molecule: HP1BP3 (from UniProt Q5SSJ5 1-553)
binding (FLAG-DIDO3): binds

Molecule: PARP1 (from UniProt P09874 1-1014) (enzyme)
binding (FLAG-DIDO3): binds

Molecule: XRCC1 (from UniProt P18887 1-633)
binding (FLAG-DIDO3): binds

Molecule: macroH2A.1 (from UniProt O75367 1-369)
binding (FLAG-DIDO3 ∆SPOC): binds
binding (FLAG-DIDO3): binds

B2: HIRIP3 (protein, UniProt Q9BW71 1-556)
chain: MAREKEMQEFTRSFFRGRPDLSTLTHSIVRRRYLAHSGRSHLEPEEKQALKRLVEEELLKMQVDEAASREDKLDLTKKGKRPPTPCSDPERKRFRFNSESESGSEASSPDYFGPPAKNGVAAEVSPAKEENPRRASKAVEESSDEERQRDLPAQRGEESSEEEEKGYKGKTRKKPVVKKQAPGKASVSRKQAREESEESEAEPVQRTAKKVEGNKGTKSLKESEQESEEEILAQKKEQREEEVEEEEKEEDEEKGDWKPRTRSNGRRKSAREERSCKQKSQAKRLLGDSDSEEEQKEAASSGDDSGRDREPPVQRKSEDRTQLKGGKRLSGSSEDEEDSGKGEPTAKGSRKMARLGSTSGEESDLEREVSDSEAGGGPQGERKNRSSKKSSRKGRTRSSSSSSDGSPEAKGGKAGSGRRGEDHPAVMRLKRYIRACGAHRNYKKLLGSCCSHKERLSILRAELEALGMKGTPSLGKCRALKEQREEAAEVASLDVANIISGSGRPRRRTAWNPLGEAAPPGELYRRTLDSDEERPRPAPPDWSHMRGIISSDGESN
binding (FLAG-DIDO3 ∆N): no binding
binding (FLAG-DIDO3): binds
